{
  "source": "paper PMC7062800",
  "key": {"[1]": {"test_system": "RdhK1 (CprK4) (Desulfitobacterium hafniense DCB-2)", "assay": "EMSA", "conditions": "EMSA: 100 ng DNA, 2 uM protein, 200 uM effector, 15 uL, 40% glycerol, 10 mM MgCl2, 500 mM NaCl, 5 mM EDTA, 10 mM DTT, 30 min, recombinant protein"}, "[2]": {"test_system": "RdhK6 (CprK1) (Desulfitobacterium hafniense DCB-2)", "assay": "EMSA", "conditions": "EMSA: 100 ng DNA, 2 uM protein, 200 uM effector, 15 uL, 40% glycerol, 10 mM MgCl2, 500 mM NaCl, 5 mM EDTA, 10 mM DTT, 30 min, recombinant protein"}},
  "note": "The exact form of at least one protein or probe is not confirmed. For some of these results: A negative result means that nothing was seen under these conditions. For some of these results: At least one verdict was read from the data and is not stated in words by the source.",
  "data": [
    {"sequence": "GAATTCTCAGGCGATGTAACCGCTTTCAAATTTAGTATACGCTAAATATCTTAACAATGTGATAGCTATGATTGCACCG (double strand) [mgl-DB8]", "values": [
      {"measurement": "binding result", "setting": "[1]; 200 uM 3,5-DCP", "result": "binds"},
      {"measurement": "binding result", "setting": "[1]; 200 uM Cl-OHPA (no increase over no effector)", "result": "binds"},
      {"measurement": "binding result", "setting": "[2]; 200 uM 3,5-DCP", "result": "no binding"},
      {"measurement": "binding result", "setting": "[2]; no effector", "result": "no binding"}
    ]}
  ]
}
